Measurements reported in article PMC6100724, “Proteome‐wide analysis of phospho‐regulated PDZ domain interactions” (Molecular Systems Biology, 2018).
No constants are given. Whether binding was seen depends on the method and setting. For some assays here: In cells and extracts the contact can be indirect. Some binding calls cover weakened binding; strength is not graded here.

The chains behind the UniProt entries cited, without tags or fusion partners. Where a name states a change or a piece, a line headed by the entry shows the natural chain unless it says otherwise. Residues count along the entry.
UniProt Q15349: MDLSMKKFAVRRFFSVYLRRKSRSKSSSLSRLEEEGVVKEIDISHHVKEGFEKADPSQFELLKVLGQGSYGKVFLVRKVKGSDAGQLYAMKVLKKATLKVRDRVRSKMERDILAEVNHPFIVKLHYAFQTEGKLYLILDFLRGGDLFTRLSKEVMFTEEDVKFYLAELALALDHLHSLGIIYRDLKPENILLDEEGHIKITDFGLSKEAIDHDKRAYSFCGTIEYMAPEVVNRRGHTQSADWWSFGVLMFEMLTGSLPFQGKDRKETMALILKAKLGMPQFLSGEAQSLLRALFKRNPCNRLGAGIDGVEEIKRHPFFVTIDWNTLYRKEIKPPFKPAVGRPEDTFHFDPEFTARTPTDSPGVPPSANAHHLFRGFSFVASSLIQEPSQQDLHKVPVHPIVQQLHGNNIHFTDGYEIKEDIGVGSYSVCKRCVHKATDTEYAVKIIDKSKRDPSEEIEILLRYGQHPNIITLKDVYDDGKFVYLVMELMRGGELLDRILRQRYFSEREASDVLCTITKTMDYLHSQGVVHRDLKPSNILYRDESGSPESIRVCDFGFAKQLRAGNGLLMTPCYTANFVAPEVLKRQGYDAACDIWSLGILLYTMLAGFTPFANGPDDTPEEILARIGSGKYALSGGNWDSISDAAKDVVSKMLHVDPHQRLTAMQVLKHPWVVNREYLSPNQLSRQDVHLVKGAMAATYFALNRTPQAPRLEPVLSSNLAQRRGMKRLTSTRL
UniProt Q12959, residues 311-407: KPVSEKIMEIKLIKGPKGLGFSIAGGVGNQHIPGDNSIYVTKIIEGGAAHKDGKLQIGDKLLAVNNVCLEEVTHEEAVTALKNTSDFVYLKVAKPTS
UniProt Q14160: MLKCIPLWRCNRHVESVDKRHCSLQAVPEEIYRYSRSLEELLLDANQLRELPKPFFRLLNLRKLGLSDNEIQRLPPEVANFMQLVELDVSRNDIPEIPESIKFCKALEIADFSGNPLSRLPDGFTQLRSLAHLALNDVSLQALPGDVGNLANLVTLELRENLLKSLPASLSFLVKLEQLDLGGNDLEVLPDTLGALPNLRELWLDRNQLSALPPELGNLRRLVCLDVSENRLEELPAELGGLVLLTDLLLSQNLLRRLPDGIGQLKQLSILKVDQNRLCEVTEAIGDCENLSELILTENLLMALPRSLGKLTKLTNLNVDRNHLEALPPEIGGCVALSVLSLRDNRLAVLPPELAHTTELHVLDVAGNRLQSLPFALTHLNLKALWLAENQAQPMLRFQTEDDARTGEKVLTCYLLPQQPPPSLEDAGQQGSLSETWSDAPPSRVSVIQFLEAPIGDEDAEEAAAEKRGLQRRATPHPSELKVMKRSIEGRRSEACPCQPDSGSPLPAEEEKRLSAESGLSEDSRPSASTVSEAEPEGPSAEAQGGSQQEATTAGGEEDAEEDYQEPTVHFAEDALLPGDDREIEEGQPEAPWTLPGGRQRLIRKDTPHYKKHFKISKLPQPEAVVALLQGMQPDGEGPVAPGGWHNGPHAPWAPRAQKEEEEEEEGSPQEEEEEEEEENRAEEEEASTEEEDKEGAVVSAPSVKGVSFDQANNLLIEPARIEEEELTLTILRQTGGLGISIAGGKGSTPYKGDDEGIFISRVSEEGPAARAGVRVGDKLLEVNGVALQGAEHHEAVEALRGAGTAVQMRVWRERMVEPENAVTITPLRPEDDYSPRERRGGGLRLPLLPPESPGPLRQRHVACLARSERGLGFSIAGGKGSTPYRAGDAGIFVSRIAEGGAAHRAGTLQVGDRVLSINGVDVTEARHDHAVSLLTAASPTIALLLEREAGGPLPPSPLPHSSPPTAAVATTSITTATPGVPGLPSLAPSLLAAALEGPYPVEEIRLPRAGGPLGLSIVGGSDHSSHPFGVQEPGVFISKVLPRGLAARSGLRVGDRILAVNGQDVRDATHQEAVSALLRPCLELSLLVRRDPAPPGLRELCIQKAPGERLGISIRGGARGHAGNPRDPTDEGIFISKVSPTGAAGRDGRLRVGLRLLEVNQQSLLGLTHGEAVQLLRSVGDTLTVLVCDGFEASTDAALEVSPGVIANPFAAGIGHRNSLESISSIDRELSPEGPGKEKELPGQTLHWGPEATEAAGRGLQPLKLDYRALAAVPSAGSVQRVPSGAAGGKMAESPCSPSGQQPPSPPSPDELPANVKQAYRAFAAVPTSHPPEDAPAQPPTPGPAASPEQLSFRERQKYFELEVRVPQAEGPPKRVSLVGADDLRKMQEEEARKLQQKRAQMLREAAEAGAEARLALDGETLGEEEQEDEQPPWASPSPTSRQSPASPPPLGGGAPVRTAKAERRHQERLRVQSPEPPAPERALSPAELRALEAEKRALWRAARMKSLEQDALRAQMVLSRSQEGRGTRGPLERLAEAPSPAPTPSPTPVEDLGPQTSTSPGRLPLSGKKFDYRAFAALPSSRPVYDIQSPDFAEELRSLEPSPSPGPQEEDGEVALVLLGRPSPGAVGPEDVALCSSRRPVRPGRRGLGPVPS

Assays:
[1] = target: T1, FITC-RLTpSTRL (RPS6KA2 peptide, phosphorylated at p-3) (human); assay: MST; FITC-labeled peptide fixed at 25-50 nM, protein (Scribble PDZ1 or DLG1 PDZ2) in a 1:1 dilution series; 50 mM Tris-HCl pH 7.4, 0.1% Tween-20; thermophoresis and T-Jump signal; n = 3; both purified
T1 sequence (peptide, phosphoserine at p-3 (RLT(pS)TRL); FITC on the N-terminus): RLTSTRL

[2] = target: Flag-tagged full-length RPS6KA2 S730E (human) (UniProt Q15349); assay: co-IP; HEK293 co-transfected with GFP-Scribble and Flag-RPS6KA2 constructs; lysate precipitated with anti-Flag M2 magnetic beads overnight at 4°C; anti-Flag and anti-GFP blots

Substance: DLG1 PDZ2 (His-tagged, aa 311-407) (from UniProt Q12959 311-407) (domain or fragment)
- binding [1]: binds

Substance: GFP-tagged full-length human Scribble (from UniProt Q14160 1-1655)
- binding [2]: binds
